# Library screen at single concentrations

Source: ChEMBL document CHEMBL3988442, “University of Dundee, Small-Polar-MMV Screening Library” (2021).

Values are the deposited “Percent Effect”, in %. The controls that fix the scale are not given in the record; negative values are as filed. The compounds are a random part of those screened. Two or more numbers in one place are separate tests of the same structure; such repeats can differ widely.

Mtb cholesterol medium: 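Phenotypic screen: M. tuberculosis growth, cholesterol and DPPC medium, 4 days; the read-out is not stated. Concentration: 50 µM. The record gives no direction; compounds that gave an IC50 in retests scored well above the rest, so higher reads as more growth inhibition. Size under these conditions: about 69,000 compounds, about 370 of them at 50% or above in at least one test.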
Mtb glucose medium: 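Whole-cell growth test on Mycobacterium tuberculosis, read after 3 days in glucose-containing 7H9 medium; the read-out is not stated. Tested at 50 µM. Higher reads as more growth inhibition (inferred: compounds with an IC50 in retests scored well above the rest). Of about 69,000 compounds tested this way, about 760 (1.1%) reached 50% or more in at least one test.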

Result for [H][C@]12CC[C@]([H])(CN(C(=O)N(C)C)C1)N(C(=O)Cc1c(C)nc(C)[nH]c1=O)C2 was Mtb cholesterol medium: -11.22%; Mtb glucose medium: -5.456%. Result for COC(=O)c1cccc(S(=O)(=O)Nc2ccc(F)c(C(N)=O)c2)c1 was Mtb cholesterol medium: -21.74%; Mtb glucose medium: 6.294% and -26.09%. Result for CSc1ccc(C)c(C(=O)N2CCCC(n3cncn3)C2)c1 (centres unmarked) was Mtb cholesterol medium: 1.527%; Mtb glucose medium: 6.248%. CCc1ccc(C(=O)O)cc1S(=O)(=O)Nc1c(C)ccn(C)c1=O read Mtb cholesterol medium: 14.95%; Mtb glucose medium: 15.54%. CN1CCOC(CNC(=O)CCCOc2ccccc2F)C1 (centres unmarked) gave Mtb cholesterol medium: -4.721%; Mtb glucose medium: -3.218%. c1csc(-c2noc(CCCN3CCCC3Cn3cncn3)n2)c1 (centres unmarked) read Mtb cholesterol medium: 1.679%; Mtb glucose medium: 4.094%. Result for COc1cccc(CCC2CCCN(C(=O)c3ccc(OC)o3)C2)c1 (centres unmarked) was Mtb cholesterol medium: 48.3%; Mtb glucose medium: 40.4%.

With O=C(O)C(F)(F)F.O=C(O)C(F)(F)F.[H][C@@]12COC[C@]1(C(=O)NCc1cccnc1)CN(Cc1scnc1C)C2 the screen gave Mtb cholesterol medium: 4.614% and -22.76%; Mtb glucose medium: 5.017%. COc1ccc(C2CC(=O)Oc3cc(C)[nH]c(=O)c32)cc1O (centres unmarked) gave Mtb cholesterol medium: -16.42%; Mtb glucose medium: -24.73%. Result for CN(C)c1ncccc1N(C)C(=O)Cn1cc(-c2ccccc2)nn1 was Mtb cholesterol medium: -6.183%; Mtb glucose medium: -11.94%. For Cc1ccccc1OCCC(=O)N1CCc2nc(C)n(C)c(=O)c2CC1 the result was Mtb cholesterol medium: -13.62%; Mtb glucose medium: 13.15%. With [H][C@@]12CCN(C(=O)c3ccc(-c4ccccc4)[nH]3)C[C@@]([H])(CC1)N2C the screen gave Mtb cholesterol medium: -1.648%; Mtb glucose medium: 18.23% and 11.93%. O=C(CCN1CCN(c2ccc3nncn3n2)CC1)N1CCCCC1 read Mtb cholesterol medium: -13.26%; Mtb glucose medium: -15.97%. O=C(NCCn1nc2ccccn2c1=O)c1sccc1-c1ccccc1 gave Mtb cholesterol medium: -1.266%; Mtb glucose medium: 5.799%.

O=C1CNc2ncnc(N3CCN(c4ccccc4F)CC3)c2N1 gave Mtb cholesterol medium: 4.465%; Mtb glucose medium: 96.61%. O=C(NCCN1CCC(c2cccs2)CC1)c1ccccc1C(F)(F)F gave Mtb cholesterol medium: 18.13%; Mtb glucose medium: 4.626% and 4.99%. Result for CCS(=O)(=O)N1CCC(Nc2c(Cl)cccc2C#N)CC1 was Mtb cholesterol medium: 22.78%; Mtb glucose medium: 35.56%. For O=S(=O)(NCc1ccc(S(=O)(=O)N2CCCC2)s1)c1cc(Cl)ccc1Cl the result was Mtb cholesterol medium: -33.07%; Mtb glucose medium: -23.53%. CN(C)c1ncccc1CNS(=O)(=O)c1ccc(C(N)=O)cc1 gave Mtb cholesterol medium: -5.576%; Mtb glucose medium: -6.929%. With c1nc(N2CCOCC2)nc2c1COCC21CCN(CC2CC2)C1 (centres unmarked) the screen gave Mtb cholesterol medium: -4.748%; Mtb glucose medium: 8.431%. Cc1cccc(NC(=O)N2CCN(Cc3noc(C4CC4)n3)CC2)c1 gave Mtb cholesterol medium: 2.333%; Mtb glucose medium: 5.603%.

CCN(CC1CN(Cc2ncc(C)o2)CCO1)c1cccnn1 (centres unmarked) read Mtb cholesterol medium: 12.99%; Mtb glucose medium: -4.412%. For O=c1[nH]nc(SCC2CCCCO2)n1C1CC1 (centres unmarked) the result was Mtb cholesterol medium: -3.298%; Mtb glucose medium: -18.46%. Cc1c(C(=O)NC2=NCCS2)cnn1-c1ccc(Cl)cc1 read Mtb cholesterol medium: 1.893%; Mtb glucose medium: 6.969%. O=C(O)C(F)(F)F.O=C(O)C(F)(F)F.[H][C@]12CCN(C(=O)NCc3cccnc3)C[C@@]1([H])OCCN(CCOC)C2 gave Mtb cholesterol medium: -25.53%; Mtb glucose medium: 4.073% and -0.7328%. O=C(O)c1cc(Br)cnc1OCC1CC1 gave Mtb cholesterol medium: -4.589%; Mtb glucose medium: 6.238% and 2.226%. For COC(=O)NCC(=O)N1CCc2cc(Cl)cc(Cl)c2C1 the result was Mtb cholesterol medium: 32.66%; Mtb glucose medium: 52.14%. O=C(O)C(F)(F)F.O=C(O)C(F)(F)F.O=C(O)C(F)(F)F.[H][C@]12CCN(Cc3ccc(C)s3)CC[C@]1([H])N(Cc1ccncc1)CCO2 read Mtb cholesterol medium: -10.61%; Mtb glucose medium: -7.929%.

CN(Cc1nc2ccccc2c(=O)[nH]1)C1CC(=O)N(C2CC2)C1=O (centres unmarked) read Mtb cholesterol medium: -18.62%; Mtb glucose medium: -15.34%. Cc1nc(NCc2nccn2C)cc(C2COCCN2)n1 (centres unmarked) read Mtb cholesterol medium: 11.64% and -2.46%; Mtb glucose medium: 8.437%. Cc1cccc(-n2c(C)cc(C(=O)N3CCn4c(C)nnc4C3)c2C)c1 gave Mtb cholesterol medium: 14.32%; Mtb glucose medium: 22.42%. Result for CN1CCC(CNC(=O)NCc2ccc(F)cc2)CC1 was Mtb cholesterol medium: -11.11%; Mtb glucose medium: -15.21%. CC(NCCCC#N)c1ccc(-c2ccncc2)cc1 (centres unmarked) gave Mtb cholesterol medium: 7.833%; Mtb glucose medium: -7.217% and 12.7%. Cc1cnc(CNC(=O)NCCOc2ncccc2Cl)s1 gave Mtb cholesterol medium: -18.85% and 0.2637%; Mtb glucose medium: -2.393%. Result for O=C(O)C(F)(F)F.[H][C@]12CN(Cc3ccc(C)cc3)C[C@@]1([H])S(=O)(=O)CC[C@@H]2C(=O)N1CCCC1 was Mtb cholesterol medium: -4.162%; Mtb glucose medium: -4.847% and 2.335%.

For CN(C)c1ccc(C(O)CNS(=O)(=O)C2CC2)cc1 (centres unmarked) the result was Mtb cholesterol medium: -24.5%; Mtb glucose medium: -20.15% and -6.018%. For O=C(c1cccnc1N1CCN(Cc2ccoc2)CC1)N1CCCCC1 the result was Mtb cholesterol medium: -19.68% and 1.217%; Mtb glucose medium: 1.845%. With NC(=O)NC(=O)CCN1CCCN(c2nccs2)CC1 the screen gave Mtb cholesterol medium: 44.94%; Mtb glucose medium: 79.74%. [H][C@@]12CC[C@H](Oc3ccc(Cl)cc3)[C@]1([H])CN(C(=O)Cn1ccnc1)C2 read Mtb cholesterol medium: 16.21%; Mtb glucose medium: 17.55%.

Once more, the final 3:

For O=C(c1cccnc1N1CCN(Cc2ccoc2)CC1)N1CCCCC1 the result was Mtb cholesterol medium: -19.68% and 1.217%; Mtb glucose medium: 1.845%.
For NC(=O)NC(=O)CCN1CCCN(c2nccs2)CC1 the result was Mtb cholesterol medium: 44.94%; Mtb glucose medium: 79.74%.
For [H][C@@]12CC[C@H](Oc3ccc(Cl)cc3)[C@]1([H])CN(C(=O)Cn1ccnc1)C2 the result was Mtb cholesterol medium: 16.21%; Mtb glucose medium: 17.55%.